At least one structure is not confirmed: it was looked up by name or label, or the drawing left a doubt.
Test system: lipoperoxide production in homogenized brain
Experiment: Lipoperoxide inhibitory activity (natural oxidation of homogenized rat brain, malonodialdehyde by TBA method)
Assay type: biochemical, Sprague-Dawley rat
Details: for Lipoperoxide inhibition rate: 10^-5 M test compound
Method: 2. Lipoperoxide inhibitory activity
From 10-week, old, male Sprague-Dawely rats which were fed CE-2 diet (Nippon Claire) and water, their brains were taken out by the method of Stocks disclosed in Clinical Science Molecular Medicine, Vol. 78, page 215 (1974), to form lipoperoxide by natural oxidation. The compound (I) in an amount of 10-^3 moles was dissolved in ethanol, and the resultant (10 μl) was added to each homogenized brain. On the other hand, ethanol from which the compound (I) was removed was added to a control group of homogenized brain. A malonodialdehyde was measured by the (TBA) method disclosed in Okawa et al., Analysis Biochemistry, Vol. 95, page 351 (1979). The produced lipoperoxide was calculated based on the measured value of malonodialdehyde.

SMILES	Lipoperoxide inhibition rate	IC50 (read-out: Lipoperoxide Inhibitory Activity, 50% inhibitory concentration (IC50))
Cc1cc(C)c2ncc(NC(=O)C=Cc3ccc(O)c(O)c3)c(-c3ccccc3Cl)c2c1 [Example 38, 4-(2-chlorophenyl)-3-(3,4-dihydroxycinnamoylamino)-6,8-dimethylquinoline]	98.2%	
CC1=C(C(=O)Nc2cnc3c(C)cc(C)cc3c2-c2ccccc2Cl)Sc2ccccc2N1 [Example 15, 4-(2-chlorophenyl)-6,8-dimethyl-3-(3-methyl-4H-1,4-benzothiazin-2-ylcarbonyl) aminoquinoline]	98.2%	890 nM

From US5523407A, “Quinoline derivatives, their production and use as ACAT inhibitors” (Takeda Chemical Industries, Ltd., priority 1989, dated 1996)
